# Publication PMC8384837
# Positions count from the first letter of the chain named. The list shows a part of the results. For some assays here: At the low end of the ranking the order means little.
# Legend:
# Conditions in all cases: yeast three-hybrid, YBZ-1, SC-Leu-His + 0.5 mM 3-AT, 4 days
# [1] = molecular target: T1, PUM1 PUF domain R6-SWS N1043S + Y1044W + Q1047S (Homo sapiens) (UniProt Q14671)
# T1 sequence: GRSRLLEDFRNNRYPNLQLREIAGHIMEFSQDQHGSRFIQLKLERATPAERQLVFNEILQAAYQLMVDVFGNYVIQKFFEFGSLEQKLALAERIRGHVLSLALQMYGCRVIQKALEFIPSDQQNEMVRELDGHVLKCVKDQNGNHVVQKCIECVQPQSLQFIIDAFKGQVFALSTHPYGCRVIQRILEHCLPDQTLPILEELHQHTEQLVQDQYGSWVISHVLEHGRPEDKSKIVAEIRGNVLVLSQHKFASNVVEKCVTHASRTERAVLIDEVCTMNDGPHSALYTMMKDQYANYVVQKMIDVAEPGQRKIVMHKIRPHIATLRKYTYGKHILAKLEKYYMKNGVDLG
# [2] = molecular target: T2, PUM1 PUF domain R6-SWV N1043S + Y1044W + Q1047V (UniProt Q14671)
# T2 sequence: T1 sequence with S220V
# [3] = molecular target: T3, PUM1 PUF domain R6-SYA N1043S + Q1047A (UniProt Q14671)
# T3 sequence: T1 sequence with W217Y, S220A
# [4] = molecular target: T4, PUM1 PUF domain R6-SYM N1043S + Q1047M (UniProt Q14671)
# T4 sequence: T1 sequence with W217Y, S220M
# [5] = molecular target: T5, PUM1 PUF domain R6-SYS N1043S + Q1047S (UniProt Q14671)
# T5 sequence: T1 sequence with W217Y
# [6] = molecular target: T6, PUM1 PUF domain R6-TFA N1043T + Y1044F + Q1047A (Homo sapiens) (UniProt Q14671)
# T6 sequence: T1 sequence with S216T, W217F, S220A
# [7] = molecular target: T7, PUM1 PUF domain R6-TFD N1043T + Y1044F + Q1047D (UniProt Q14671)
# T7 sequence: T1 sequence with S216T, W217F, S220D
# [8] = molecular target: T8, PUM1 PUF domain R6-TFE N1043T + Y1044F + Q1047E (UniProt Q14671)
# T8 sequence: T1 sequence with S216T, W217F, S220E
# [9] = molecular target: T9, PUM1 PUF domain R6-TFS N1043T + Y1044F + Q1047S (Homo sapiens) (UniProt Q14671)
# T9 sequence: T1 sequence with S216T, W217F
# [10] = molecular target: T10, PUM1 PUF domain R6-THR N1043T + Y1044H + Q1047R (Homo sapiens) (UniProt Q14671)
# T10 sequence: T1 sequence with S216T, W217H, S220R
# [11] = molecular target: T11, PUM1 PUF domain R6-TRE N1043T + Y1044R + Q1047E (UniProt Q14671)
# T11 sequence: T1 sequence with S216T, W217R, S220E
# [12] = molecular target: T12, PUM1 PUF domain R6-TWG N1043T + Y1044W + Q1047G (UniProt Q14671)
# T12 sequence: T1 sequence with S216T, S220G
# [13] = molecular target: T13, PUM1 PUF domain R6-TWL N1043T + Y1044W + Q1047L (UniProt Q14671)
# T13 sequence: T1 sequence with S216T, S220L
# [14] = molecular target: T14, PUM1 PUF domain R6-VFA N1043V + Y1044F + Q1047A (UniProt Q14671)
# T14 sequence: T1 sequence with S216V, W217F, S220A
# [15] = molecular target: T15, PUM1 PUF domain R6-VFG N1043V + Y1044F + Q1047G (UniProt Q14671)
# T15 sequence: T1 sequence with S216V, W217F, S220G
# [16] = molecular target: T16, PUM1 PUF domain R6-VFH N1043V + Y1044F + Q1047H (UniProt Q14671)
# T16 sequence: T1 sequence with S216V, W217F, S220H
# [17] = molecular target: T17, PUM1 PUF domain R6-VFL N1043V + Y1044F + Q1047L (UniProt Q14671)
# T17 sequence: T1 sequence with S216V, W217F, S220L
# [18] = molecular target: T18, PUM1 PUF domain R6-VFQ N1043V + Y1044F (UniProt Q14671)
# T18 sequence: T1 sequence with S216V, W217F, S220Q
# [19] = molecular target: T19, PUM1 PUF domain R6-VFS N1043V + Y1044F + Q1047S (UniProt Q14671)
# T19 sequence: T1 sequence with S216V, W217F
# [20] = molecular target: T20, PUM1 PUF domain R6-VFV N1043V + Y1044F + Q1047V (UniProt Q14671)
# T20 sequence: T1 sequence with S216V, W217F, S220V
# [21] = molecular target: T21, PUM1 PUF domain R6-VWA N1043V + Y1044W + Q1047A (UniProt Q14671)
# T21 sequence: T1 sequence with S216V, S220A
# [22] = molecular target: T22, PUM1 PUF domain R6-VWG N1043V + Y1044W + Q1047G (UniProt Q14671)
# T22 sequence: T1 sequence with S216V, S220G
# [23] = molecular target: T23, PUM1 PUF domain R6-VWH N1043V + Y1044W + Q1047H (UniProt Q14671)
# T23 sequence: T1 sequence with S216V, S220H
# [24] = molecular target: T24, PUM1 PUF domain R6-VWK N1043V + Y1044W + Q1047K (UniProt Q14671)
# T24 sequence: T1 sequence with S216V, S220K
# [25] = molecular target: T25, PUM1 PUF domain R6-VWL N1043V + Y1044W + Q1047L (Homo sapiens) (UniProt Q14671)
# T25 sequence: T1 sequence with S216V, S220L
# [26] = molecular target: T26, PUM1 PUF domain R6-VWM N1043V + Y1044W + Q1047M (UniProt Q14671)
# T26 sequence: T1 sequence with S216V, S220M
# [27] = molecular target: T27, PUM1 PUF domain R6-VWR N1043V + Y1044W + Q1047R (Homo sapiens) (UniProt Q14671)
# T27 sequence: T1 sequence with S216V, S220R
# [28] = molecular target: T28, PUM1 PUF domain R6-VWS N1043V + Y1044W + Q1047S (UniProt Q14671)
# T28 sequence: T1 sequence with S216V
# [29] = molecular target: T29, PUM1 PUF domain R6-VWV N1043V + Y1044W + Q1047V (UniProt Q14671)
# T29 sequence: T1 sequence with S216V, S220V
# [30] = molecular target: T30, PUM1 PUF domain R6-VWY N1043V + Y1044W + Q1047Y (UniProt Q14671)
# T30 sequence: T1 sequence with S216V, S220Y
# [31] = molecular target: T31, PUM1 PUF domain R6-VYC N1043V + Q1047C (UniProt Q14671)
# T31 sequence: T1 sequence with S216V, W217Y, S220C
# [32] = molecular target: T32, PUM1 PUF domain R6-VYE N1043V + Q1047E (UniProt Q14671)
# T32 sequence: T1 sequence with S216V, W217Y, S220E
# [33] = molecular target: T33, PUM1 PUF domain R6-VYG N1043V + Q1047G (UniProt Q14671)
# T33 sequence: T1 sequence with S216V, W217Y, S220G
# [34] = molecular target: T34, PUM1 PUF domain R6-VYL N1043V + Q1047L (UniProt Q14671)
# T34 sequence: T1 sequence with S216V, W217Y, S220L
# [35] = molecular target: T35, PUM1 PUF domain R6-VYN N1043V + Q1047N (UniProt Q14671)
# T35 sequence: T1 sequence with S216V, W217Y, S220N
# [36] = molecular target: T36, PUM1 PUF domain R6-VYQ N1043V (UniProt Q14671)
# T36 sequence: T1 sequence with S216V, W217Y, S220Q
# [37] = molecular target: T37, PUM1 PUF domain R6-VYR N1043V + Q1047R (Homo sapiens) (UniProt Q14671)
# T37 sequence: T1 sequence with S216V, W217Y, S220R
# [38] = molecular target: T38, PUM1 PUF domain R6-WHR N1043W + Y1044H + Q1047R (UniProt Q14671)
# T38 sequence: T1 sequence with S216W, W217H, S220R
# [39] = molecular target: T39, PUM1 PUF domain R6-WWR N1043W + Y1044W + Q1047R (UniProt Q14671)
# T39 sequence: T1 sequence with S216W, S220R
# [40] = molecular target: T40, PUM1 PUF domain R6-WYG N1043W + Q1047G (UniProt Q14671)
# T40 sequence: T1 sequence with S216W, W217Y, S220G
# [41] = molecular target: T41, PUM1 PUF domain R6-WYR N1043W + Q1047R (Homo sapiens) (UniProt Q14671)
# T41 sequence: T1 sequence with S216W, W217Y, S220R
# [42] = molecular target: T42, PUM1 PUF domain R6-YRS N1043Y + Y1044R + Q1047S (UniProt Q14671)
# T42 sequence: T1 sequence with S216Y, W217R
# [43] = molecular target: T43, PUM1 PUF domain R6-YWL N1043Y + Y1044W + Q1047L (UniProt Q14671)
# T43 sequence: T1 sequence with S216Y, S220L
# [44] = molecular target: T44, PUM1 PUF domain R6-YWR N1043Y + Y1044W + Q1047R (Homo sapiens) (UniProt Q14671)
# T44 sequence: T1 sequence with S216Y, S220R
sequence,measurement,setting,value
GGCUAGAACUAGUGGAUCCCCCGGCGCCCGGCGGCUCGAGCCCGGGUAAGUGCAAAUAGUCUGCAUGCCGCCGGGCGCCAUGCCUGCAGGUCGACUCUAGAAAACAUG,binding signal (log2 enrichment (interaction score)),[1],-4.63
same,binding signal (log2 enrichment (interaction score)),[2],< -7.39
same,binding signal (log2 enrichment (interaction score)),[3],< -7.17
same,binding signal (log2 enrichment (interaction score)),[4],< -6.9
same,binding signal (log2 enrichment (interaction score)),[5],-5.05
same,binding signal (log2 enrichment (interaction score)),[6],-1.25
same,binding signal (log2 enrichment (interaction score)),[7],-5.88
same,binding signal (log2 enrichment (interaction score)),[8],-5.76
same,binding signal (log2 enrichment (interaction score)),[9],-4.14
same,binding signal (log2 enrichment (interaction score)),[10],0.31
same,binding signal (log2 enrichment (interaction score)),[11],< -7.55
same,binding signal (log2 enrichment (interaction score)),[12],< -7.52
same,binding signal (log2 enrichment (interaction score)),[13],< -7.9
same,binding signal (log2 enrichment (interaction score)),[14],< -8.05
same,binding signal (log2 enrichment (interaction score)),[15],< -8.09
same,binding signal (log2 enrichment (interaction score)),[16],-4.64
same,binding signal (log2 enrichment (interaction score)),[17],< -8.02
same,binding signal (log2 enrichment (interaction score)),[18],-4.9
same,binding signal (log2 enrichment (interaction score)),[19],-7.15
same,binding signal (log2 enrichment (interaction score)),[20],< -8.45
same,binding signal (log2 enrichment (interaction score)),[21],< -8.56
same,binding signal (log2 enrichment (interaction score)),[22],< -8.14
same,binding signal (log2 enrichment (interaction score)),[23],< -6.5
same,binding signal (log2 enrichment (interaction score)),[24],< -6.01
same,binding signal (log2 enrichment (interaction score)),[25],-4.81
same,binding signal (log2 enrichment (interaction score)),[26],< -6.83
same,binding signal (log2 enrichment (interaction score)),[27],-0.92
same,binding signal (log2 enrichment (interaction score)),[28],< -7.88
same,binding signal (log2 enrichment (interaction score)),[29],< -8.44
same,binding signal (log2 enrichment (interaction score)),[30],< -6.66
same,binding signal (log2 enrichment (interaction score)),[31],< -6.73
same,binding signal (log2 enrichment (interaction score)),[32],< -6.27
same,binding signal (log2 enrichment (interaction score)),[33],< -8.45
same,binding signal (log2 enrichment (interaction score)),[34],< -7.25
same,binding signal (log2 enrichment (interaction score)),[35],< -6.01
same,binding signal (log2 enrichment (interaction score)),[36],< -6.7
same,binding signal (log2 enrichment (interaction score)),[37],-5.12
same,binding signal (log2 enrichment (interaction score)),[38],< -7.38
same,binding signal (log2 enrichment (interaction score)),[39],-5.28
same,binding signal (log2 enrichment (interaction score)),[40],< -7.6
same,binding signal (log2 enrichment (interaction score)),[41],-1.46
same,binding signal (log2 enrichment (interaction score)),[42],< -7.99
same,binding signal (log2 enrichment (interaction score)),[43],-4.63
same,binding signal (log2 enrichment (interaction score)),[44],-4.87

# Another view of some results above.
sequence | measurement | setting | value
GGCUAGAACUAGUGGAUCCCCCGGCGCCCGGCGGCUCGAGCCCGGGUAAGUGCAAAUAGUCUGCAUGCCGCCGGGCGCCAUGCCUGCAGGUCGACUCUAGAAAACAUG | binding signal (log2 enrichment (interaction score)) | [1] | -4.63
same | binding signal (log2 enrichment (interaction score)) | [2] | < -7.39
same | binding signal (log2 enrichment (interaction score)) | [3] | < -7.17
same | binding signal (log2 enrichment (interaction score)) | [4] | < -6.9
